Variants at the floor of the assay are shown more often than the library holds them.
B1: tRNA (parent)
chain: GUUCCGUUGGCGUAAUGGUAACGCGUCUCCCUCCUAAGGAGAAGACUGCGGGUUCGAGUCCCGUACGGAACG

Variants of: B1
Test: yeast fitness relative to wild type (ratio to wild type); higher = fitter; tRNA-Arg(CCU), competitive growth, 37 C, YPD
Method in brief: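 Variants of the tRNA-Arg(CCU) gene, chemically synthesised with a 3% per-site mutation rate at 69 sites, were placed at the native genomic locus in Saccharomyces cerevisiae. The pooled strains were competed in YPD at 37°C for 24 hours in six parallel replicates. Gene amplicons from the start population and from each end population were read by 100-nucleotide paired-end sequencing. Darwinian fitness relative to wild type came from changes in genotype frequencies; genotypes needed ≥ 100 starting reads, and estimates < 0.5 were set to 0.5.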

Variant	yeast fitness
U26G A42U A45C G51C	≤ 0.5
G25A C60G C61U	≤ 0.5
C27A C29U A40G C61G	≤ 0.5
U26G C55G A65C	≤ 0.5
A14C G17C C31U A37C C66U	≤ 0.5
C11G C24G C30G C34U A43C G56C	≤ 0.5
G12A U13G G23C C24G C29G A36C C60U	≤ 0.5
A21U U32A G56C C62U	≤ 0.5
U26C C30G A45U U53A C62U G68C	≤ 0.5
C30G C33U A42U A43G G48C	≤ 0.5
A20G C31A C34G A45U	≤ 0.5
A14G A37U G63C	≤ 0.5
C5A A15C C33A C34U A36C	≤ 0.5
U7A C29A G58A C61G A70U	0.665
U64G C66A	≤ 0.5
U7G U28C U53A	≤ 0.5
G18C G41C A43C	≤ 0.5
C24G C49U C61A A70U	≤ 0.5
C4U C22U C33U A42C A57G	≤ 0.5
C22G C24U U35G G38A G52C	≤ 0.5
G52A A57C A69U	0.565
A15C U26A C31G U32A G50U G63A	≤ 0.5
A21C C33U C61A G68C	≤ 0.5

Variant	yeast fitness
A15G G23A C31U	≤ 0.5
C4U C11G A37C	≤ 0.5
U7A A37G G48A C66U	≤ 0.5
C5A A15U U32G U35A G39A G44C C62U	≤ 0.5
C4A A15C U26G A65G	≤ 0.5
C5U U35A A57G	≤ 0.5
C31U U35C A37C U47G G63A A65G A70C	≤ 0.5
C5A C29A A70U	≤ 0.5
C11A G52C	0.596
U3A A36C G51C U53C	≤ 0.5
G25C C27G A57G	≤ 0.5
U7A A14C C22G C27U U47A G48C	≤ 0.5
G12A C27U C30G C55U A57C	0.547
G6A A15C U16A A21G U26A C30U C61A A69U	≤ 0.5
C5G U16C A20G C60A G63A	≤ 0.5
G12C U53C C60G	≤ 0.5
A21U A42C G48A G50C	≤ 0.5
A14G C24G C31U C55G G63C	≤ 0.5
C27G A36U G39C C61U	≤ 0.5
G6A U26A C33A G51C C62U	0.591
G18A U35A C46G C49U	≤ 0.5
U16A A42G G67U	≤ 0.5
C5G C30U U54A	0.601

Variant	yeast fitness
C11G U26A U54C	≤ 0.5
G25A C60A A69G	≤ 0.5
U19C U32G C33G	≤ 0.5
U2C A14U U16A	≤ 0.5
G25C U53A C61A	≤ 0.5
U13C G38C	0.644
U7A C34U G38C	≤ 0.5
A21G G25A C30G C33U U64A	≤ 0.5
A20C C24U C31G A37U	≤ 0.5
C4A C5U A20G U28A A37U C61U G63C A69U	≤ 0.5
A42G G48C C49A U53A G56A G58C	≤ 0.5
C11A C31U G41C A43C C60G	≤ 0.5
G9A U28C G44A G51C G58C	0.51
U16C G56A G68A	0.69
U3C C11U U16C C30G C31G A37U	≤ 0.5
U2G C11U G23A	≤ 0.5
A36C C49G A70U	≤ 0.5
G38C C49G	0.743
G17A C22U U32A C34U A37G A40U	≤ 0.5
G17A C46G U54C	0.562
C5A C22G G67A A70G	≤ 0.5
A20U C29U C55G A65G	≤ 0.5
C11A U13A A42U C55A A69U	≤ 0.5

Variant	yeast fitness
U8G G12A A37C A43U C66A A70C	0.597
G25A A43U G56A G68C	≤ 0.5
A37G C60U A65G	≤ 0.5
U3A G56A	1.02
C30U G56A A69C	0.566
A21C U28G C33U C34A G52C C61U	≤ 0.5
A36C G39C	≤ 0.5
C24G A43C G48A	≤ 0.5
A15U C24U C61A	≤ 0.5
G10C A15C C31A C46A	≤ 0.5
G10A C11A C30G	≤ 0.5
U26A C30U C62A A65U	≤ 0.5
G9C U47C A69C	≤ 0.5
U2A C11G A37U A40U	≤ 0.5
A21U C29A U35A A43U C62U G68C	≤ 0.5
C55G C60A A69C	≤ 0.5
G10A A37G A42C	≤ 0.5
A14G U19C A21U	0.503
U26A A40C U64A A70G	≤ 0.5
A40U A42G C55G G58A	≤ 0.5
C29U A43U C46A G67A	≤ 0.5
A43C C55U	0.721
A21C A45U G67A	≤ 0.5

Variant	yeast fitness
U2A U8A G10A	≤ 0.5
G56A G63A	0.726
C49U G63C	0.703
C4A G9C C11G G44A C60U G67C	≤ 0.5
A37G U54A U59A	≤ 0.5
C4G U7C C29A U35A G67C	≤ 0.5
U13A G18C A20C C62G G68U	≤ 0.5
A15G G18A G38C G68U	≤ 0.5
C4U G39A G52C C55G	≤ 0.5
A37C G48A	0.779
G12A G25A C62G	≤ 0.5
A15C C31A A37G C55U A57G	≤ 0.5
C34G G52A C62U	0.6
C5G C22A A37G G50C G67C	≤ 0.5
C22U A37U U47A A70C	≤ 0.5
C22A G25A C29U G56C	≤ 0.5
C27U G44C G58C G63C	≤ 0.5
A20U C34A	0.7
C5U C31A U32C A37C G50C A69U	≤ 0.5
U13A A37U U53G	0.536
A15U C30U A65U	≤ 0.5
